Measurements reported in PubChem BioAssay AID504804 (Drosophila RNAi Screening Center, 2011).
The deposit covers about 19,000 reagents; shown is an unselected part of those with a known target gene and a result. Over the whole deposit, 47 (0.25%) got an active call. 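Signals are raw, not normalised; exact z-scores behind calls not deposited; actives needed confirmation, so some wells reaching 2 SD are inactive.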 Entries without a mark were called inactive. Names joined by + are all predicted targets of the reagent. Reagent sequences are not shown.

Purpose: 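Knock-downs shielding fly cells from apoptosis caused by DNA damage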 (primary screen)
System: Drosophila Kc cells
Reagent: long dsRNA against Drosophila genes, 0.5 µg dsRNA per well
Time to read-out: 96 h (48 h knock-down, then 48 h drug)
Conditions: doxorubicin 5 µg/ml for 48 h, added 48 h after dsRNA
Measurement: 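Viability measured as cellular ATP by luminescence after 48 h knock-down then 48 h doxorubicin at 5 µg/ml; unnormalised plate counts for each replicate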
Direction: raw ATP luminescence: higher = more viable cells, protection from doxorubicin
Hit rule: 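z-score of 2 or more over plate mean in both duplicates, retained only when retests and separate dsRNAs confirm the protection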

gene | DRSC id | SD above plate mean | raw ATP luminescence, replicate 1 | raw ATP luminescence, replicate 2
Ir56a (Ionotropic receptor 56a) | DRSC05776 | – | 1.34e5 | 1.41e5
CG32762 | DRSC18298 | – | 35060 | 36200
CG42304 + Snup | DRSC08276 | – | 42240 | 65690
Cul5 (Cullin 5) | DRSC14723 | – | 61410 | 43950
CG7675 | DRSC16280 | – | 43300 | 44180
CG5172 | DRSC19936 | – | 2.61e5 | 2.50e5
CG32576 + UQCR-14 | DRSC19870 | – | 3.03e5 | 3.39e5
Tsp42El (Tetraspanin 42El) | DRSC06186 | – | 70307 | 50977
CG13325 | DRSC06362 | – | 51890 | 55873
KaiR1D (Kainate-type ionotropic glutamate receptor subunit 1D) | DRSC15516 | – | 63310 | 71600
CG7627 | DRSC03065 | – | 1.06e5 | 98290
CG7208 | DRSC16212 | – | 56090 | 65450
Obp83ef (Odorant-binding protein 83ef) | DRSC12268 | – | 60207 | 72283
CG43861 + CG12508 (retired record) | DRSC02170 | – | 67133 | 55003
CG7378 | DRSC20041 | – | 3.64e5 | 3.33e5
UQCR-C2 (Ubiquinol-cytochrome c reductase core protein 2) | DRSC10405 | – | 66637 | 58280
wam (wampa) | DRSC15171 | – | 84250 | 85770
Rtnl2 | DRSC12609 | – | 58583 | 59477
Rab14 | DRSC03403 | – | 1.13e5 | 68630
CG7548 | DRSC10874 | – | 72383 | 83800
FASN3 (Fatty acid synthase 3) | DRSC20882 | – | 3.15e5 | 2.66e5
Dlg5 (Discs large 5) | DRSC02964 | – | 72300 | 63663
CG30076 | DRSC05494 | – | 76473 | 96833
Sfxn1-3 (Sideroflexin 1/3) | DRSC12183 | – | 73197 | 60070
LpR1 (Lipophorin receptor 1) | DRSC15669 | – | 69870 | 75790
LpR1 (Lipophorin receptor 1) | DRSC15670 | – | 58690 | 53640
CG4570 | DRSC15602 | – | 51267 | 45727
CG7685 | DRSC16285 | – | 64530 | 70670
CG5614 | DRSC15845 | – | 1.10e5 | 56100
CG9757 | DRSC16557 | – | 75910 | 97350
Sirt6 (Sirtuin 6) | DRSC16010 | – | 63400 | 56270
CG32625 | DRSC18994 | – | 2.90e5 | 2.79e5
X11Lbeta | DRSC18156 | – | 3.15e5 | 3.48e5
X11Lbeta | DRSC18158 | – | 3.91e5 | 3.60e5
CG32379 | DRSC10318 | – | 81643 | 1.08e5
CG42286 (retired record) | DRSC14357 | – | 50420 | 43013
CG34126 | DRSC02726 | – | 16680 | 18657
sima (similar) | DRSC17055 | – | 20140 | 27260
Vha26 (Vacuolar H[+]-ATPase 26kD subunit) | DRSC12371 | – | 36513 | 17853
mTor (mechanistic Target of rapamycin) | DRSC02811 | – | 96547 | 63280
CG13026 | DRSC09906 | – | 68690 | 47397
CG6901 | DRSC16129 | – | 1.06e5 | 84130
srp (serpent) | DRSC13125 | – | 2.27e5 | 1.78e5
srp (serpent) | DRSC17068 | – | 18770 | 17930
Icmt (Isoprenylcysteine carboxyl methyltransferase) | DRSC09834 | – | 85630 | 74573
CG17349 | DRSC02610 | – | 48683 | 45900
Nepl13 (Neprilysin-like 13) | DRSC15632 | – | 84970 | 67190
Tango11 (Transport and Golgi organization 11) | DRSC03890 | – | 52057 | 38897
Tango11 (Transport and Golgi organization 11) | DRSC03892 | – | 66220 | 52673
Sgsh (N-sulfoglucosamine sulfohydrolase) | DRSC14771 | – | 35110 | 31940
AstA-R1 (Allatostatin A receptor 1) | DRSC17278 | – | 2.69e5 | 2.57e5
AstA-R1 (Allatostatin A receptor 1) | DRSC17727 | – | 38070 | 47400
Arl4 (ADP ribosylation factor-like 4) | DRSC17156 | – | 52130 | 40160
Ak2 (Adenylate kinase 2) | DRSC04043 | – | 37403 | 47377
CG14000 | DRSC02332 | – | 29197 | 30287
hiw (highwire) | DRSC20338 | – | 3.26e5 | 3.12e5
hiw (highwire) | DRSC20339 | – | 3.44e5 | 3.06e5
CG14135 | DRSC10140 | – | 80423 | 54577
CG17928 | DRSC02644 | – | 80267 | 83290
beat-Vc (beaten path Vc) | DRSC12927 | – | 2.18e5 | 2.62e5
beat-Vc (beaten path Vc) | DRSC14849 | – | 45923 | 50053
CG2962 | DRSC18247 | at least 2 SD above plate mean | – | –
CG32773 (retired record) | DRSC17330 | – | 2.42e5 | 2.29e5
CG8419 | DRSC03087 | – | 36340 | 68983
indra | DRSC08558 | – | 69443 | 77383
CG17721 | DRSC15253 | – | 58533 | 48277
Tap42 (Two A-associated protein of 42kDa) | DRSC02967 | – | 79723 | 80840
capu (cappuccino) | DRSC00208 | – | 2.84e5 | 3.48e5
capu (cappuccino) | DRSC00209 | – | 2.90e5 | 2.99e5
capu (cappuccino) | DRSC00434 | – | 23143 | 30423
capu (cappuccino) | DRSC00807 | – | 84447 | 54077
PAN2 (Poly(A)-binding protein-dependent poly(A) ribonuclease 2) | DRSC07115 | – | 74773 | 66400
Ir87a (Ionotropic receptor 87a) | DRSC14836 | – | 88790 | 99610
fabp + sea | DRSC16114 | – | 59353 | 36243
fabp + sea | DRSC16115 | – | 51210 | 35880
CG31559 | DRSC12172 | – | 61207 | 72060
CG31559 | DRSC12270 | – | 53660 | 73907
Mo25 | DRSC11224 | – | 29743 | 23460
Letm1 | DRSC04476 | – | 68900 | 54940
Obp56c (Odorant-binding protein 56c) | DRSC06552 | – | 2.02e5 | 2.22e5
CG5890 | DRSC15909 | – | 68230 | 76930
spd-2 (spindle defective 2) | DRSC09682 | – | 25970 | 22417
Rbcn-3A (Rabconnectin-3A) | DRSC18314 | – | 44340 | 42370
CG14933 + CG42486 | DRSC02415 | – | 37567 | 48287
nenya | DRSC13838 | – | 1.80e5 | 2.15e5
CG12134 | DRSC06109 | – | 35890 | 1.04e5
tub (tube) | DRSC12389 | – | 16870 | 18540
TrpA1 (Transient receptor potential cation channel A1) | DRSC10544 | – | 78757 | 83420
grh (grainy head) | DRSC05680 | – | 1.19e5 | 1.42e5
grh (grainy head) | DRSC05683 | – | 85803 | 54557
grh (grainy head) | DRSC07624 | – | 64747 | 67487
sdt (stardust) | DRSC17555 | – | 1.40e5 | 1.53e5
sdt (stardust) | DRSC17556 | – | 1.71e5 | 1.90e5
sdt (stardust) | DRSC17860 | – | 40960 | 43170
sdt (stardust) | DRSC17861 | – | 44380 | 40070
sdt (stardust) | DRSC18022 | – | 24500 | 36150
sdt (stardust) | DRSC18025 | – | 15070 | 14650
sdt (stardust) | DRSC18026 | – | 10670 | 13160
sdt (stardust) | DRSC18027 | – | 21230 | 24340
sdt (stardust) | DRSC18108 | – | 40670 | 46930
hng1 (hinge1) | DRSC04555 | – | 64680 | 52967
CG17364 | DRSC10269 | – | 53513 | 55320
CG17364 | DRSC10270 | – | 64193 | 67590
CkIIalpha-i1 (CKII-alpha subunit interactor-1) | DRSC11115 | – | 53937 | 46457
CG9377 | DRSC03217 | – | 1.01e5 | 55683
gcm (glial cells missing) | DRSC03536 | – | 36373 | 79463
Pgm2a (Phosphoglucomutase 2a) | DRSC07068 | – | 61533 | 63740

Only “raw ATP luminescence, replicate 1” (14 entries from above):
CG32576 + UQCR-14 [DRSC19870]	3.03e5
Tsp42El (Tetraspanin 42El) [DRSC06186]	70307
CG13325 [DRSC06362]	51890
KaiR1D (Kainate-type ionotropic glutamate receptor subunit 1D) [DRSC15516]	63310
CG7627 [DRSC03065]	1.06e5
CG7208 [DRSC16212]	56090
Obp83ef (Odorant-binding protein 83ef) [DRSC12268]	60207
CG43861 + CG12508 (retired record) [DRSC02170]	67133
CG7378 [DRSC20041]	3.64e5
UQCR-C2 (Ubiquinol-cytochrome c reductase core protein 2) [DRSC10405]	66637
wam (wampa) [DRSC15171]	84250
Rtnl2 [DRSC12609]	58583
Rab14 [DRSC03403]	1.13e5
CG7548 [DRSC10874]	72383
